We go through two substances from PMC8576330.

By UniProt entry, the sequences of proteins in these tests, tags left out.
UniProt P84022: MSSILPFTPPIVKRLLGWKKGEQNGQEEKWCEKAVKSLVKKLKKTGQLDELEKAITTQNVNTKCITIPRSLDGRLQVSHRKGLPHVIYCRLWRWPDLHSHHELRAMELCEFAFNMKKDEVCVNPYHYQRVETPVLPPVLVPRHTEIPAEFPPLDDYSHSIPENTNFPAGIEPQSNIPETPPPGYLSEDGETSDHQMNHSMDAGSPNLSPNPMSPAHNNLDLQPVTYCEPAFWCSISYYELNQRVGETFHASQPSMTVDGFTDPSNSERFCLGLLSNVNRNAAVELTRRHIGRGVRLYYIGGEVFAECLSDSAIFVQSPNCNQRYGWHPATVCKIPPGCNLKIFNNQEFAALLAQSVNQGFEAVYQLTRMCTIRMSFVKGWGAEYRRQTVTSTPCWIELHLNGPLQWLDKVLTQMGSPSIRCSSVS

Results are given in words; binding and its absence hold for the method and conditions named. In cells and extracts the contact can be indirect. Some results given as binding are weak or reduced against the parent protein; the word gives no strength.

In test [1] the target is YAPS127A stably expressed in K-HOS cells (pQCXIH-Flag-YAP-S127A) (UniProt P46937). The test is described as follows: proximity ligation; in situ Duolink PLA on fixed osteosarcoma cells (HOS, MG63, G292; mock-, YAPS94A- and YAPS127A-stably transfected K-HOS) with antibodies against YAP and Smad3, in the presence or absence of TGF-β1 (5 ng/ml, 45 min in the methods, 1 h in the legend).

Test [2] addresses YAPS94A stably expressed in K-HOS cells (pQCXIH-Myc-YAP-S94A) (UniProt P46937). The description is as above.
For test [3], the target named is YAPS94A-Flag (pCMV-Flag-YAP-S94A) (UniProt P46937). Description: co-IP; HEK293 cells co-transfected with Flag-YAP mutants and Smad3-Myc, treated with TGF-β1 (5 ng/ml); lysate immunoprecipitated with anti-Flag antibody and Protein-A/G-agarose, Western blot with YAP and Smad3 antibodies.
In test [4] the target is YAPS127A-Flag (pCMV-Flag-S127A-YAP) (UniProt P46937). The description is as above.

Regarding “Smad3, endogenous (from UniProt P84022 1-425)”, the binding result in test [1] and in test [2] was “binds” in each case.

In the case of Smad3-Myc (from UniProt P84022 1-425), the binding result in test [3] and in test [4] was “binds” in each case.
